# Several values for one entry are separate records, joined by “and”; a condition that tells them apart may be missing. Identical values can stand only once. Among all 78,000 compounds or so, about 1,800 (2.3%) were called active. Inconclusive means that the source gave no clear call. Such entries were picked first, then a sample of the others. Rule as the data show it: active = inhibition above about 30%; inconclusive = mostly about 10% to 28%; inactive = weaker than that. More than one record can exist for a structure, and the calls need not agree.
# By UniProt entry, the sequences of proteins in these tests, tags left out. Where a name states a change or a piece, a line headed by the entry shows the natural chain unless it says otherwise.
# UniProt Q01638: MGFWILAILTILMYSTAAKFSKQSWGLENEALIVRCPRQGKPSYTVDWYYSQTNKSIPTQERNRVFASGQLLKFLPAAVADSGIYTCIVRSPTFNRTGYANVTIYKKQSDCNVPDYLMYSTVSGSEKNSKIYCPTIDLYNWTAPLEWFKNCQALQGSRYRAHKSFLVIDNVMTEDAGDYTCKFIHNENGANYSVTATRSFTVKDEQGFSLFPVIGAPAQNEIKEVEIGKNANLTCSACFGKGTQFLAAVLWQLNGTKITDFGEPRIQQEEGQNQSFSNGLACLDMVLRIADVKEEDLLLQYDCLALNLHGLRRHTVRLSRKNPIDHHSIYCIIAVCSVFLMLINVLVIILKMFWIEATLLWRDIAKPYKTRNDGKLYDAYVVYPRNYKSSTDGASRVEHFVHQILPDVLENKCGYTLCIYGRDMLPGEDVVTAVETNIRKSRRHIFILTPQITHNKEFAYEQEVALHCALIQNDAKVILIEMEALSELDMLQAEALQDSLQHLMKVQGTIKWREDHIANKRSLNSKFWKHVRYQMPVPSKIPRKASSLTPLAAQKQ
# Biological target: Interleukin-1 receptor-like 1 (Homo sapiens) (UniProt Q01638)
# Test: blocks human ST2 binding to IL-33, primary screen, biochemical, AlphaLISA (AID 1259354)
# Details: AlphaLISA ST2-Fc/biotin-IL-33 interaction, 1 h; at 17 µM, stronger effect = higher value
row,Compound,inhibition
1,Nc1c(C(=O)N2CCCCC2)sc2nc(-c3ccccc3)cc(C(F)(F)F)c12,inactive
2,COc1ccccc1NC(=O)C1=C(C)Nc2nnnn2C1c1ccc(C(C)(C)C)cc1 (configuration not stated),inconclusive: 16%
3,CCn1cnc2cc(NCc3ccc(OC)cc3OC)ccc21,inconclusive: 18%
4,Cc1nn(-c2cccc(Br)c2)c(C)c1[C@@H]1C=C[C@@H](NS(=O)(=O)c2ccccc2)C1,inactive
5,COc1ccc(CN2C[C@H](O)C[C@H]2c2nc(-c3cccc([N+](=O)[O-])c3)no2)c2ccccc12,inactive
6,CCOC(=O)c1cccc(Nc2c3c(nc4ccccc24)CCC3)c1,inconclusive: 11%
7,COc1ccc(CNC(=O)CCC2N=C3c4ccccc4N=C(SCC#N)N3C2=O)cc1 (configuration not stated),inconclusive: 17%
8,CC1=C(C(N)=O)C(c2cccnc2)n2nnnc2N1 (configuration not stated),inconclusive: 15%
9,O=C1C2CCCN2C(c2ccccc2Cl)N1c1nccs1 (configuration not stated),inconclusive: 16%
10,Brc1ccc(C2=Nn3c(nnc3-c3ccccc3)SC2)s1,inconclusive: 15%
11,O=C(NC1CCCC1)c1ccc(N2CCC(NCc3ccc(Cl)s3)CC2)cc1,inconclusive: 13%
12,Cc1cccc(CN2CCC(C(=O)Nc3cccc(-c4cccc(F)c4)c3)CC2)n1,inconclusive: 15%
13,O=c1[nH]c2cc(Cl)ccc2cc1CN1CCN(Cc2cccnc2)CC1,inactive
14,O=C(c1ccc(=O)[nH]n1)N1CCCC2(CCNCC2)CC1,inactive
15,COc1ccc(-c2ccc(/C=c3\sc4nc5ccccc5n4c3=O)o2)c([N+](=O)[O-])c1,inconclusive: 22%
16,COc1ccc(NC(=O)C(NS(=O)(=O)c2cccs2)c2ccccc2)c(OC)c1 (configuration not stated),inconclusive: 21%
17,CCOC(=O)c1c(C)oc2cc(Br)c(OCC(=O)c3ccc(OC)cc3)cc12,inactive
18,Cc1ccnc(NC(=O)C2CC(=O)N(c3ccc(C)c(C)c3)C2)c1 (configuration not stated),inconclusive: 10%
19,COc1cccc(-c2ccccc2NC(=O)C2CCN(CCC(C)c3ccc(C)o3)CC2)c1 (configuration not stated),inconclusive: 23%
20,CCCN(c1ccc(C(C)C)cc1)S(=O)(=O)c1ccc2c(c1)CCC(=O)N2,inconclusive: 15%
21,COC(=O)[C@@H](NC1CCN(c2ccc(NS(=O)(=O)c3ccccc3)cc2)CC1)c1ccccc1,inconclusive: 13%
22,COc1ccc(C(C)=O)cc1N1C(=O)C2C3C=CC(CO)(O3)C2C1=O (configuration not stated),inconclusive: 14% and inconclusive: 11%
23,COc1ccccc1C1N(c2nccs2)C(=O)C2CCCN21 (configuration not stated),inconclusive: 17%

row,Compound,inhibition
1,COc1ccc(NC(=O)CSc2nc3c(c(=O)n2-c2ccccc2)SCC3)c(OC)c1,inconclusive: 20%
2,CCCCC(NS(=O)(=O)c1ccc(F)cc1)C(=O)O (configuration not stated),inconclusive: 16%
3,CCc1ccc(C2CC(c3ccccc3OC)n3nc(N)nc3N2)cc1 (configuration not stated),inconclusive: 12%
4,CC(=O)Cc1nsc(Nc2ccc(C)cc2C)n1,inactive
5,O=C(Nc1ccc(N2CCCC2)cc1)c1ccccc1F,active: 68%
6,COc1ccc(NS(=O)(=O)c2ccc3c(c2)c(=O)n(C)c(=O)n3C)cc1Cl,inconclusive: 14%
7,CCC(C)N(Cc1ccncc1)Cc1cc(C)nn1C (configuration not stated),inactive
8,Cc1cccc(NC(=O)c2cc3c([nH]c4ccccc43)c(C)n2)c1C,inactive
9,CC1(C)CC(=O)C2=C(C1)N(c1sc3c(c1C#N)CCCC3)C(N)=C(C#N)C2c1cccnc1 (configuration not stated),inconclusive: 17%
10,CN(C)CC(O)Cn1c2ccc(Cl)cc2c2cc(Cl)ccc21 (configuration not stated),inconclusive: 10%
11,Cc1cc(C)cc(NC(=O)CSc2ncnc3nc(N(C)C)sc23)c1,inconclusive: 12%
12,Cc1cc(C(=O)N2CC[C@H](O)[C@@H](O)C2)ccc1F,inactive
13,c1cc(-c2cscn2)cc(-n2ccnc2C2CC2)c1,inconclusive: 15%
14,COc1ccc(Nc2c(-c3ccco3)nc3ccc(Cl)cn23)cc1,inconclusive: 23%
15,CC(C)(C)C1CCc2c(sc(NC(=O)COc3ccc(F)cc3)c2C(N)=O)C1 (configuration not stated),inactive
16,Cn1c(=O)[nH]c(=O)c2c1nc(CN1CCN(Cc3ccccc3)CC1)n2CCCc1ccccc1,inactive
17,Cc1ccc(C2=NN(C(=O)CCC(=O)O)C(c3ccc(Br)cc3)C2)cc1 (configuration not stated),active: 38%
18,CNc1nc2c(C)cccn2c(=O)c1C=Nc1ccc(OC)cc1,active: 98%
19,CC1=C(C(=O)OC(C)C)C(c2ccc(OCc3ccccc3)cc2)N2C(=O)CCSC2=N1 (configuration not stated),inconclusive: 17%
20,CC(=O)N1CCC(N(C)CCCc2cnn(C)c2)CC1,inactive
21,COc1ccc(NC(=O)CSc2c3c(nc4ccccc24)CCC3)cc1OC,inconclusive: 13%
22,COc1ccc2cc(CN3CCCC(O)(CO)CC3)ccc2c1 (configuration not stated),inconclusive: 29%
23,Cc1ccc(CN2CCOC(CCNS(C)(=O)=O)C2)cc1C (configuration not stated),inconclusive: 17%

row,Compound,inhibition
1,CN(Cc1ccccc1)C(=O)CC1(c2cccc(C(F)(F)F)c2)CC(=O)N(C2CC2)C1=O (configuration not stated),inconclusive: 10%
2,CCC(C)C(=O)C(=O)N1CCc2c(cnc(C)c2CNC(=O)c2ccccc2F)C1 (configuration not stated),inconclusive: 13%
3,Cc1ccccc1-n1nc2c(c1NC(=O)C1(c3ccc(Cl)cc3)CCCC1)CS(=O)C2 (configuration not stated),inactive
4,Cn1cc(CN2CCC(N3CCSCC3)CC2)c(-c2ccc(Oc3ccccc3)cc2)n1,inconclusive: 10%
5,O=c1nc(N2CCOCC2)c(Cl)cn1-c1nc(-c2ccccc2)oc1-c1ccccc1,inconclusive: 25%
6,Cc1ccc(Oc2ncccc2CNc2ncccn2)c(F)c1F,inconclusive: 13%
7,COc1ccc(OC)c(NC(=O)C(Cc2ccccc2)NS(=O)(=O)c2cccs2)c1 (configuration not stated),inconclusive: 12%
8,CN1CC2(CCCN(C(=O)c3ccc(Cn4cnnn4)cc3)C2)OC1=O (configuration not stated),inconclusive: 15%
9,N#Cc1cccc(-c2ccnc(N[C@H]3CO[C@H]4[C@@H]3OC[C@H]4OC(=O)Nc3cccc4ccccc34)n2)c1,inconclusive: 15%
10,Cc1cc([N+](=O)[O-])ccc1NC(=O)c1cc2ccccc2oc1=O,inconclusive: 17%
11,Nc1nc2ccc(NC(=O)c3ccc4nc(N)sc4c3)cc2s1,inconclusive: 18%
12,CC(Oc1ccccc1)C(=O)NCc1ccc(Cl)cc1 (configuration not stated),inconclusive: 11%
13,O=C(Nc1ccc(I)cc1)c1ccc([N+](=O)[O-])cc1,inactive
14,Nc1ncccc1CN1CCC(Cc2cccc(C(=O)O)c2)C1 (configuration not stated),inconclusive: 19%
15,Cc1c(CN(C)c2ccc(-c3nccn3C)nn2)[nH]c2ccccc12,inactive
16,Cc1cccc(CC(=O)Nc2cnn(-c3cccc(C(=O)NC4CCOC(C)(C)C4)c3)c2)c1 (configuration not stated),inactive
17,CCOC(=O)C1CCN(C(=O)C2CCN(c3nc4ccc(OC)cc4s3)CC2)CC1,inconclusive: 14%
18,COc1cccc(NC(=O)c2cnc3n(c2=O)CCS3)c1,inactive
19,COc1ccc(N2CCN(Cc3nc(-c4ccc(Cl)cc4Cl)no3)CC2)cc1,inconclusive: 17%
20,C=CCN(C)C(=O)CCSCc1ccc(F)cc1,inconclusive: 18%
21,COC(=O)c1c(NC(=O)c2sc3ccccc3c2Cl)sc2c1CCN(C)C2,active: 37%
22,CCOc1ccc(NC(=O)CSc2nnc(Cc3cc(=O)[nH]c(=O)[nH]3)n2-c2ccccc2)cc1,inactive
23,Cc1nc(N2CCCC2)c2sc3nc4c(cc3c2n1)COC(C)(C)C4,inconclusive: 16%

row,Compound,inhibition
1,COC(C(=O)Nc1cccc(F)c1)c1ccccc1 (configuration not stated),inconclusive: 13%
2,CCc1ccc(NC(=O)c2cc3cc4ccc(OC)cc4nc3o2)cc1,inconclusive: 19%
3,N#CC1=C(N)N(c2ccc(Br)cc2F)C2=C(C(=O)CCC2)C1c1cccnc1 (configuration not stated),inconclusive: 17%
4,N#CC1=C(N)N(c2ccccc2F)C2=C(C(=O)CCC2)C1c1ccccc1 (configuration not stated),inconclusive: 14%
5,CSCC(=O)N1CCCCC1C(=O)Nc1ccc(-n2nc(C)cc2C)cc1 (configuration not stated),inconclusive: 18%
6,CC1CC(Nc2ccccc2)c2ccccc2N1C(=O)Cc1ccccc1 (configuration not stated),inconclusive: 12%
7,Cc1ccc(S(=O)(=O)NCCSCc2ccccc2)cc1[N+](=O)[O-],inconclusive: 13%
8,O=c1cc(O)c2sc3nc(-c4cccs4)cc(-c4ccc(F)cc4)c3c2[nH]1,inconclusive: 19%
9,NC(=O)COc1ccc([N+](=O)[O-])cc1,inconclusive: 13%
10,COc1ccccc1/C=C(\NC(=O)c1ccc(OC)c(OC)c1)C(=O)Nc1ccccc1Cl,inconclusive: 18%
11,O=C(NCc1ccco1)c1ccc(F)cc1,inconclusive: 10%
12,CCn1ccc(-c2n[nH]c(=O)n2CCc2ccccc2F)n1,inactive
13,CC1=C(/C=C/c2ccc(Cl)cc2Cl)C(=O)c2ccccc2C1=O,active: 37%
14,CC(C)(C)C1(O)CC(C(F)(F)F)=NN1C(=O)c1cccc(Cl)c1 (configuration not stated),inconclusive: 13%
15,CN(C(=O)CCN1CCCCCC1=O)C1CCCN(C2Cc3ccccc3C2)C1 (configuration not stated),inactive
16,Cc1cc(C)cc(N2CCN(C(=O)CS(C)(=O)=O)CC2=O)c1,inconclusive: 12%
17,Cc1ncsc1CCN(C)C(=O)c1ccc(Cl)s1,inactive
18,COc1ccc(C(=O)Nc2cccc(-c3nc4ccccc4o3)c2C)cc1[N+](=O)[O-],inconclusive: 13%
19,COc1ccc(-c2c3c(=O)n(C)c(=O)n(C)c3cn2-c2cc(C)cc(C)c2)cc1,inactive
20,C1CCCCCC2(CCCCC1)OCC(CN1CCCC1)O2 (configuration not stated),inactive
21,CN1[C@@H](CCC(=O)N2CCc3ccccc32)CNC(=O)[C@@H]2[C@H]1CCN2Cc1ccc(C(=O)O)cc1,inactive
22,NS(=O)(=O)c1ccc(NC(=O)c2cc(-c3ccc(Cl)s3)nc3ccccc23)cc1,inconclusive: 13%
23,COCCn1c(=O)c2c(nc3n2CCN3c2ccccc2)n(C)c1=O,inconclusive: 27%

# From PubChem BioAssay AID1259354 (Paczesny and Yang Labs, IUPUI and University of Michigan, 2018)
